PubChem BioAssay AID1259254, NCATS – 2017

Test: 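Gene knock-downs that lead to re-replication, shown by excess G2 DNA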 (primary screen)
Cells: human HCT116 colorectal cancer cells
Reagent: single siRNA against human genes
Time to read-out: 3 days
Measurement: 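Nuclei stained with Hoechst and imaged; cell-cycle phase assigned by DNA content; G2 share scaled per plate, non-targeting siRNA 0%, GMNN siRNA 100%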
Scale: G2 robust z-score and G2 cells, % of GMNN control: higher = more G2 cells, more excess DNA replication
Active means: 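Active siRNAs have a G2 robust z of 5 or more median absolute deviations over the median, which in these data means about 38% or higher of GMNN control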
The deposit covers about 59,000 reagents; below is an unselected part. About 1,550 of them (2.6%) were called active. 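G2 share is only a proxy for re-replication; each gene was hit by three separate siRNAs, and active genes were retested.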 The numbers tell different reagents against one gene apart. Not all columns of the deposit are shown. The record does not give: the amount of reagent.

| gene knocked down | siRNA no. | G2 robust z-score | G2 cells, % of GMNN control | outcome |
| --- | --- | --- | --- | --- |
| SEC13 (GeneID 6396) | 1 | 1.9 | 16.3 | inactive |
| SEC13 (GeneID 6396) | 2 | -0.852 | -3.03 | inactive |
| SEC13 (GeneID 6396) | 3 | 0.785 | 8.49 | inactive |
| KRTAP17-1 (GeneID 83902) | 1 | 0.477 | 6.32 | inactive |
| KRTAP17-1 (GeneID 83902) | 2 | -0.154 | 1.88 | inactive |
| KRTAP17-1 (GeneID 83902) | 3 | 0.967 | 9.77 | inactive |
| SYT11 (GeneID 23208) | 1 | -0.903 | -3.39 | inactive |
| SYT11 (GeneID 23208) | 2 | -0.594 | -1.21 | inactive |
| SYT11 (GeneID 23208) | 3 | -0.844 | -2.97 | inactive |
| NXNL2 (GeneID 158046) | 1 | -0.155 | 1.88 | inactive |
| NXNL2 (GeneID 158046) | 2 | 0.853 | 8.97 | inactive |
| NXNL2 (GeneID 158046) | 3 | 4.54 | 34.9 | inactive |
| RAB2A (GeneID 5862) | 1 | -0.948 | -3.7 | inactive |
| RAB2A (GeneID 5862) | 2 | 1.37 | 12.6 | inactive |
| RAB2A (GeneID 5862) | 3 | -0.633 | -1.49 | inactive |
| IGBP1 (GeneID 3476) | 1 | 0.689 | 7.82 | inactive |
| IGBP1 (GeneID 3476) | 2 | 0.531 | 6.7 | inactive |
| IGBP1 (GeneID 3476) | 3 | -0.879 | -3.22 | inactive |
| NAPB (GeneID 63908) | 1 | -0.707 | -2.01 | inactive |
| NAPB (GeneID 63908) | 2 | 3.25 | 25.8 | inactive |
| NAPB (GeneID 63908) | 3 | 0.94 | 9.58 | inactive |
| NPM2 (GeneID 10361) | 1 | -0.627 | -1.44 | inactive |
| NPM2 (GeneID 10361) | 2 | -0.713 | -2.05 | inactive |
| NPM2 (GeneID 10361) | 3 | 2.85 | 23 | inactive |
| WWC3 (GeneID 55841) | 1 | -0.543 | -0.852 | inactive |
| WWC3 (GeneID 55841) | 2 | -0.192 | 1.62 | inactive |
| WWC3 (GeneID 55841) | 3 | 0.504 | 6.51 | inactive |
| SOCS5 (GeneID 9655) | 1 | -0.318 | 0.729 | inactive |
| SOCS5 (GeneID 9655) | 2 | -0.371 | 0.357 | inactive |
| SOCS5 (GeneID 9655) | 3 | -0.0985 | 2.27 | inactive |
| ACVR2B (GeneID 93) | 1 | -0.552 | -0.913 | inactive |
| ACVR2B (GeneID 93) | 2 | 0.262 | 4.81 | inactive |
| ACVR2B (GeneID 93) | 3 | -0.936 | -3.62 | inactive |
| PLD2 (GeneID 5338) | 1 | -0.528 | -0.747 | inactive |
| PLD2 (GeneID 5338) | 2 | -0.101 | 2.25 | inactive |
| PLD2 (GeneID 5338) | 3 | -0.313 | 0.765 | inactive |

Entries above whose gene name starts with A or a (3):
| gene knocked down | siRNA no. | G2 robust z-score | G2 cells, % of GMNN control | outcome |
| --- | --- | --- | --- | --- |
| ACVR2B (GeneID 93) | 1 | -0.552 | -0.913 | inactive |
| ACVR2B (GeneID 93) | 2 | 0.262 | 4.81 | inactive |
| ACVR2B (GeneID 93) | 3 | -0.936 | -3.62 | inactive |

Additional reagents:
| gene knocked down | siRNA no. | G2 robust z-score | G2 cells, % of GMNN control | outcome |
| --- | --- | --- | --- | --- |
| PLN (GeneID 5350) | 1 | -0.0376 | 2.7 | inactive |
| PLN (GeneID 5350) | 2 | 1.14 | 11 | inactive |
| PLN (GeneID 5350) | 3 | -0.808 | -2.72 | inactive |
| CYP2U1 (GeneID 113612) | 1 | 2.02 | 17.2 | inactive |
| CYP2U1 (GeneID 113612) | 2 | 3.17 | 25.3 | inactive |
| CYP2U1 (GeneID 113612) | 3 | -0.396 | 0.184 | inactive |
| ADCY3 (GeneID 109) | 1 | 0.00178 | 2.98 | inactive |
| ADCY3 (GeneID 109) | 2 | 0.198 | 4.36 | inactive |
| ADCY3 (GeneID 109) | 3 | -0.53 | -0.76 | inactive |
| LAMC2 (GeneID 3918) | 1 | -0.933 | -3.6 | inactive |
| LAMC2 (GeneID 3918) | 2 | -0.476 | -0.38 | inactive |
| LAMC2 (GeneID 3918) | 3 | 0.274 | 4.9 | inactive |
| FRAT1 (GeneID 10023) | 1 | 2.97 | 23.9 | inactive |
| FRAT1 (GeneID 10023) | 2 | 0.748 | 8.23 | inactive |
| FRAT1 (GeneID 10023) | 3 | 0.836 | 8.85 | inactive |
| ZNF785 (GeneID 146540) | 1 | -0.862 | -3.1 | inactive |
| ZNF785 (GeneID 146540) | 2 | 0.846 | 8.92 | inactive |
| ZNF785 (GeneID 146540) | 3 | 0.0873 | 3.58 | inactive |
| DPP9 (GeneID 91039) | 1 | -0.282 | 0.985 | inactive |
| DPP9 (GeneID 91039) | 2 | 7.13 | 53.2 | active |
| DPP9 (GeneID 91039) | 3 | 0.457 | 6.18 | inactive |
| CD48 (GeneID 962) | 1 | 1.08 | 10.6 | inactive |
| CD48 (GeneID 962) | 2 | -0.356 | 0.464 | inactive |
| CD48 (GeneID 962) | 3 | 1.17 | 11.2 | inactive |
| TOP2B (GeneID 7155) | 1 | -0.131 | 2.04 | inactive |
| TOP2B (GeneID 7155) | 2 | 0.126 | 3.86 | inactive |
| TOP2B (GeneID 7155) | 3 | 1.03 | 10.2 | inactive |
| SLC45A2 (GeneID 51151) | 1 | 0.492 | 6.43 | inactive |
| SLC45A2 (GeneID 51151) | 2 | 0.273 | 4.89 | inactive |
| SLC45A2 (GeneID 51151) | 3 | 1.69 | 14.9 | inactive |
| HMX3 (GeneID 340784) | 1 | -0.754 | -2.34 | inactive |
| HMX3 (GeneID 340784) | 2 | -0.701 | -1.97 | inactive |
| HMX3 (GeneID 340784) | 3 | 0.154 | 4.05 | inactive |
